Measurements published in patent US9357777B2, “Method for effective management of helicoverpa armigera” (priority 2012, dated 2016).
At least one peptide structure holds a part that was inferred or is arguable (an end, a ring closure or a residue). Bridges are numbered along the chain shown (N, C = ends). Where no end group is shown, it is not given here.

Assays:
[1] = test system: HGP isoforms (HGP-1 to -7); assay: HGP isoform inhibition visualization (8% native-PAGE, GXCT); type: biochemical, Helicoverpa armigera; conditions: FIG. 3D; for inhibition of HGP isoforms (overall): equal HGPI units, 30 min at 24° C.
[2] = test system: H. armigera larvae; assay: Feeding assay on artificial diet containing PIs; type: in vivo, Helicoverpa armigera; conditions: artificial diet with PI; FIG. 7C
[3] = test system: H. armigera gut proteases (HGP); assay: Combinatorial inhibition assay (synergistic effect); type: biochemical, Helicoverpa armigera; conditions: each IRD in IC50 concentration; FIG. 3E
[4] = target: T1, trypsin (Bos taurus, UniProt P00760); assay: Effect of reducing agents, native-PAGE activity gel (GXCT); type: biochemical; conditions: β-mercaptoethanol and heating; 15% native-PAGE; FIG. 3A
T1 construct: purchased Sigma-Aldrich
T1 sequence (P00760 24-246): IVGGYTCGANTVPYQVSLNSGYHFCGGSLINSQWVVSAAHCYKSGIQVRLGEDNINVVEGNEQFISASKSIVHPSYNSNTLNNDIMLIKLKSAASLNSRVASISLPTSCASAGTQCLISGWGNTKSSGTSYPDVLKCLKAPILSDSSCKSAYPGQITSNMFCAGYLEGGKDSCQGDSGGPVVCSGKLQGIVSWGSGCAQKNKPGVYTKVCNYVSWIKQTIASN

[5] = test system: trypsin; assay: Effect of temperature on inhibitory activity (BApNA assay); type: biochemical; conditions: heated 60 to 100° C.; FIG. 3B
[6] = test system: trypsin; assay: Modification of serine residues with PMSF, residual inhibitory activity; type: biochemical; conditions: PMSF 5, 10 and 15 mM, 30° C.; FIG. 6
[7] = test system: H. armigera gut proteases (HGP); assay: Proteolytic stability of IRDs towards HGP (native-PAGE, GXCT); type: physicochemical, Helicoverpa armigera; conditions: 24° C., 5 min and 1 h; FIG. 3C

| Sequence | inhibition of activities of HGP-5, -6 and -7 [1] | inhibition of HGP isoforms (overall) [1] | larval mortality rate [2] | HGPI activity, IRDs alone and in combination [3] [%] | inhibitory activity in native vs reduced state [4] | inhibitory activity against trypsin after heating (thermal stability) [5] | activity loss after reaction with PMSF [6] | proteolytic resistance when incubated with HGP [7] |
| --- | --- | --- | --- | --- | --- | --- | --- | --- |
| QPICTNSSAGLKGCNYYNADGTFICEGESDPNHPKACPKNCDPNIAYSLC (disulfide 4-41, 14-50; cysteines drawn unpaired) [IRD-9] | inhibited exclusively | inhibition of maximum HGP isoforms | relatively higher mortality rate | – | – | – | – | – |
| NRLCTNCCAGRKGCNYYSADGTFICEGESDPNNPKACPRNCDPNIAYSLC (disulfide 4-41, 7-25, 8-37, 14-50) [IRD-12] | – | inhibition of maximum HGP isoforms | – | 51 | Only normal samples showed inhibitory activity | retained their inhibitory activity against trypsin even at 90 °C for 30 min | did not show significant effect on the activity | instantaneous proteolysis |
